## Results of single-concentration screens

Chains of the proteins cited; added tags and fusions are not shown. Residues count along the entry.
UniProt I6X8D2, whole entry: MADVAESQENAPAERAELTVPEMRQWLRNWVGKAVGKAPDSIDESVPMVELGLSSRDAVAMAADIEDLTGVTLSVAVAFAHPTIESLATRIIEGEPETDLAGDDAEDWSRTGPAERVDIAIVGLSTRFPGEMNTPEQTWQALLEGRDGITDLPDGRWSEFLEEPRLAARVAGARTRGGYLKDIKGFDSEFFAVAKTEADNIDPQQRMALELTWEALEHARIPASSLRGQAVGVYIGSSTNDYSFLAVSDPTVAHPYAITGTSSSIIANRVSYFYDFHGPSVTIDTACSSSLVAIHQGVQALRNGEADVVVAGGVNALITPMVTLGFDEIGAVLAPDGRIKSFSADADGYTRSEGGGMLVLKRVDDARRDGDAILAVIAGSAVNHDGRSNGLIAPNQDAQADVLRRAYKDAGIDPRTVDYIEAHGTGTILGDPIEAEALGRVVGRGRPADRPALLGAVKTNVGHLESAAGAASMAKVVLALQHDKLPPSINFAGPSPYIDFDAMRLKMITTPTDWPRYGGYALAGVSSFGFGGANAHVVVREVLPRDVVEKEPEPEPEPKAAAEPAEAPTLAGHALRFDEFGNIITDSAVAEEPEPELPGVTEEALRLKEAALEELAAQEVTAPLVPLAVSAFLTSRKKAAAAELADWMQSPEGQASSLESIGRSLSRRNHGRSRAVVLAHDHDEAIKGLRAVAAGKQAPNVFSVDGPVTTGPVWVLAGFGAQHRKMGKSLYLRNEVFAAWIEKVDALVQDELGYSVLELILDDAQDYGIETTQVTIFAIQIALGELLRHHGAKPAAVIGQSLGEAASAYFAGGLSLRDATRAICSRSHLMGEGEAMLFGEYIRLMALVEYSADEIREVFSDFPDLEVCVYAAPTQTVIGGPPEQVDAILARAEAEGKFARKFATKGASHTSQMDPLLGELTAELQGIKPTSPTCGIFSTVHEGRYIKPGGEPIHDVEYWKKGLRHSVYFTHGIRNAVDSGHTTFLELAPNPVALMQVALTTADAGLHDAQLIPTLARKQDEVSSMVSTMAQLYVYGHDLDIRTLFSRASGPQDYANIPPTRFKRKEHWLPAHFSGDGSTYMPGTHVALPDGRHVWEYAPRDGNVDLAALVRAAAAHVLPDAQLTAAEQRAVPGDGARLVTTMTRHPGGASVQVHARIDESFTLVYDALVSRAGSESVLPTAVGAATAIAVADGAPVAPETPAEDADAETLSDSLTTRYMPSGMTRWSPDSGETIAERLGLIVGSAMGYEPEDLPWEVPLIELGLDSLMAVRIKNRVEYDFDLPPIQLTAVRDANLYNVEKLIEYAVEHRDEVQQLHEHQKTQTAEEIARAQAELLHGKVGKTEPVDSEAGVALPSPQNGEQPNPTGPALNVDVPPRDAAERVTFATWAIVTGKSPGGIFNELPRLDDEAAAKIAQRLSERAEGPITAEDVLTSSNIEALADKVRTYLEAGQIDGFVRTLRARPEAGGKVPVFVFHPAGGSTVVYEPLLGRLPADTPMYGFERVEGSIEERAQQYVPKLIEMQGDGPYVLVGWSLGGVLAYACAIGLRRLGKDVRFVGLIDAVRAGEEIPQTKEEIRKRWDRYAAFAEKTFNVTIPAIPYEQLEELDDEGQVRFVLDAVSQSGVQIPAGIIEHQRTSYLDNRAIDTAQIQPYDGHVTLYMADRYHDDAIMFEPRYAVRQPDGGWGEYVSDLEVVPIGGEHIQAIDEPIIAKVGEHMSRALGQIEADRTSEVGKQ
UniProt Q8IDJ8, 1-583: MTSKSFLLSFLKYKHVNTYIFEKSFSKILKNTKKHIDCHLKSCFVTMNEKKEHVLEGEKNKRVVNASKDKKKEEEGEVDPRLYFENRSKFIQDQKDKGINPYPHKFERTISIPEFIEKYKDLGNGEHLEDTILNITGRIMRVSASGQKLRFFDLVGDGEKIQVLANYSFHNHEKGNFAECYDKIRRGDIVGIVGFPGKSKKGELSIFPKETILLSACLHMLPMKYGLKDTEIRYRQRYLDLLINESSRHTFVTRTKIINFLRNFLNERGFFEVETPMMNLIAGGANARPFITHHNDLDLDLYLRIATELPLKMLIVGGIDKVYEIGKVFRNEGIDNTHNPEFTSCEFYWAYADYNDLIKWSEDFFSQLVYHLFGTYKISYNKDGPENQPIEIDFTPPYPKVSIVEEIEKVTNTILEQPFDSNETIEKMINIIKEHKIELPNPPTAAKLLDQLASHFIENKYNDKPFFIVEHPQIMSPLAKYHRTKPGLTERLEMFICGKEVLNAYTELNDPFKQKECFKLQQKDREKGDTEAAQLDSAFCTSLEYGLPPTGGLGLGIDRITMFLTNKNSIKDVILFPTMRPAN
UniProt A4I591, 1-473: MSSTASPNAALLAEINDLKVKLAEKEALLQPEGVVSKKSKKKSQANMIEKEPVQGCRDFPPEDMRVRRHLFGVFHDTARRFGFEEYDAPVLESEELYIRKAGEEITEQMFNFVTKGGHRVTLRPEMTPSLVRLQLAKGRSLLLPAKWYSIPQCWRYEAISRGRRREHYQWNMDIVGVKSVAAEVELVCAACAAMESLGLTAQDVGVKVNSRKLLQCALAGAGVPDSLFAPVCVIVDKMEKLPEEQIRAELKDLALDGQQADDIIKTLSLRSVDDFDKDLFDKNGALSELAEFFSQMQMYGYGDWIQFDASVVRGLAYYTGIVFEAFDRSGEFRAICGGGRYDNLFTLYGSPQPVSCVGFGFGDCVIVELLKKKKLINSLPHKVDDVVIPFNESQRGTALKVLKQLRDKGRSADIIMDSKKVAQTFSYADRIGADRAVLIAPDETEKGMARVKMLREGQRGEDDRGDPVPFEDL
UniProt Q4DA54, 1-478: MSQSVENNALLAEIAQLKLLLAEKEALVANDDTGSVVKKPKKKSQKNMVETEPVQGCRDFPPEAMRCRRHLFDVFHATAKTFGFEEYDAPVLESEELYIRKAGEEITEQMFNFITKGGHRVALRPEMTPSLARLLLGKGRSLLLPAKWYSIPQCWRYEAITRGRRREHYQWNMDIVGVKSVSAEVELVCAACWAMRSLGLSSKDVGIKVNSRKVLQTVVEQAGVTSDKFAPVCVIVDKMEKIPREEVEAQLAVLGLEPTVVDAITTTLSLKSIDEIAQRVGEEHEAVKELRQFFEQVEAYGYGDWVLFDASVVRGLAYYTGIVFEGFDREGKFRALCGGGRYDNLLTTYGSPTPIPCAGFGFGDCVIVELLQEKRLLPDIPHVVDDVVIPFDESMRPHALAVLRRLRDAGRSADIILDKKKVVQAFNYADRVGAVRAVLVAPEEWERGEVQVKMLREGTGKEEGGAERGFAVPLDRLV

Source: ChEMBL document CHEMBL3988442, “University of Dundee, Small-Polar-MMV Screening Library” (2021).

Pks13 thioesterase: 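Polyketide synthase Pks13, Mycobacterium tuberculosis (UniProt I6X8D2). Enzyme assay of the thioesterase domain of polyketide synthase 13; the read-out is not stated. Tested at 30 µM. Higher reads as stronger inhibition (inferred from which compounds were picked for retests). Of about 67,000 compounds tested this way, about 300 (0.46%) reached 50% or more in at least one test.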
PfKRS1: 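Enzyme assay of the cytosolic lysyl-tRNA synthetase in 384-well plates, read by luminescence. Target: Lysine-tRNA ligase, Plasmodium falciparum 3D7 (UniProt Q8IDJ8). Tested at 30 µM. Direction is inferred from only a few compounds that gave an IC50; most scored high, so higher reads as stronger inhibition. About 69,000 compounds were tested under these conditions; 0.071% (about 49) showed 50% or more at least once.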
LiHisRS: 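Histidine-tRNA ligase, Leishmania infantum (UniProt A4I591). Enzyme assay of histidyl-tRNA synthetase; the read-out is not stated. Tested at 30 µM. Higher reads as stronger inhibition (inferred: compounds with an IC50 in retests scored well above the rest). The assay is labelled LdHisRS but filed under L. infantum. Size under these conditions: about 69,000 compounds, about 410 of them at 50% or above in at least one test.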
TcHisRS: 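Histidine-tRNA ligase, Trypanosoma cruzi CL Brener (UniProt Q4DA54). Enzyme assay of histidyl-tRNA synthetase; the read-out is not stated. Tested at 30 µM. The record gives no direction; compounds that gave an IC50 in retests scored well above the rest, so higher reads as stronger inhibition. Of about 69,000 compounds tested this way, about 31 (0.045%) reached 50% or more in at least one test.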

Results are given as percent effect. How 0% and 100% were set is not recorded. Most values in the screen are low, and negative values occur. The compounds are a random part of those screened. A dash means the value is not listed here; it may have been measured.

| # | SMILES | Pks13 thioesterase | PfKRS1 | LiHisRS | TcHisRS |
|---|---|---|---|---|---|
| 1 | `O=C(c1ccc(S(=O)(=O)NCc2ccon2)cc1)N1CCOCC1` | -0.02197 | -0.4816 | 6.557 | -1.288 |
| 2 | `O=C1CCC(C(=O)N2CCOC(Cc3cccc4ccccc34)C2)=NN1` (stereo not shown) | -39.06 | -0.2323 | 6.667 | 5.195 |
| 3 | `Cc1ncc(CN2CCOCC2)c2cc(C(=O)c3ccc(Br)cc3)oc12` | 19.5 | -0.292 | 30.43 | 15 |
| 4 | `Cn1ncc2c1C(COCC1CC1)CN(Cc1ccc(F)cc1)C2` (stereo not shown) | -34.32 | -4.413 | 13.53 | 6.077 |
| 5 | `Cc1ncc(CN2CCC(c3ccnn3C)CC2)n1-c1ccccc1` | -9.966 | 5.237 | 13.98 | 18.45 |
| 6 | `COc1c(C2CCCN2CC(=O)Nc2nc(C)cs2)c(C)nn1C` (stereo not shown) | -4.497 | 1.071 | 9.231 | 1.916 |
| 7 | `CCOCC1c2c(ncn2C)CCN1C(=O)c1ccoc1` (stereo not shown) | -15.52 | 3.669 | 7.921 | 6.533 |
| 8 | `CN(CCC(=O)N1CCc2sccc2C1)Cc1cc(Br)cs1` | 14.03 | 1.518 | 30.36 | 9.222 |
| 9 | `COc1ccc(CN2CC[C@@]3(O)CCCC[C@H]3C2)cc1C(=O)O` | -9.159 | -3.42 | -4.444 | 9.091 |
| 10 | `COCCN1CCC(CNC(=O)C2(c3cccc(Cl)c3)CC2)C1` (stereo not shown) | -11.86 | -0.9927 | 24.11 | 9.249 |
| 11 | `CC(=O)NCc1nnc2n1CCN(c1ncnc3c(C)csc13)CC2` | -22.17 | -3.23 | 15.15 | 1.935 |
| 12 | `Cn1cccc1CNC(=O)N(CCO)C1CCCc2ccccc21` (stereo not shown) | -10.08 | -0.05804 | 5.714 | -1.087 |
| 13 | `CCC1CCC(NCCN2CCOCC2)CC1` (stereo not shown) | -9.894 | -1.367 | 7.937 | 0.5128 |
| 14 | `Cc1ncoc1C(=O)N1C[C@H]2CCC[C@@]2(COCc2cccnc2)C1` | -5.409 | 8.442 | 9.735 | -8.8 |
| 15 | `Cn1cc(C(=O)Nc2ccc(CC(=O)NC3CC3)cc2)nn1` | -30.7 | -2.451 | 2.564 | 0 |
| 16 | `Cc1nocc1C(=O)N1CCc2c(CN(C)C(C)C)n[nH]c2C1` | -19.11 | 0.4459 | 19.05 | 4.132 |
| 17 | `CC(C)CNC(=O)[C@H]1CCS(=O)(=O)[C@@H]2CN(Cc3ccc(F)cc3)C[C@H]12` | -4.013 | -2.107 | 5.556 | -0.9346 |
| 18 | `O=C([C@H]1C[C@H]2OCC[C@H]2N(CCc2ccccc2)C1)N1CCCCO1` | -25.28 | -2.247 | 9.023 | 3.867 |
| 19 | `O=C(NCCCN1CCOCC1)c1ccnc(OCc2ccccc2)c1` | -31.38 | 1.672 | 14.53 | 5.556 |
| 20 | `COc1cccc(CN2CCN(C(=O)CN3CCOCC3)CC2)n1` | -2.236 | 3.686 | 10.61 | 0 |
| 21 | `O=C(NCC1CC1)C1CCC2(CCN(C(=O)c3ccco3)CC2)O1` (stereo not shown) | -13.54 | 4.875 | -6.422 | -0.4808 |
| 22 | `COc1ccc(NC(C)C(=O)N2CCCC2)cn1` (stereo not shown) | 67.89 | 3.694 | 31.51 | 5.911 |
| 23 | `CCn1cc(CNc2ccc(F)c(F)c2)cn1` | -0.929 | -1.808 | 3.54 | 5.263 |
| 24 | `CN(Cc1ncc[nH]1)S(=O)(=O)c1cccc(C(=O)N2CCOCC2)c1` | 0.1971 | 1.843 | 17.31 | 4.959 |
| 25 | `Cc1nc(-c2ccccc2C)n(CC(=O)NC(C)C)n1` | 17.68 | -3.995 | -2.521 | 3.922 |
| 26 | `CN1C(=O)[C@H]2CC[C@@H]1CN(C(=O)Nc1cccc3ccccc13)C2` | -4.387 | 9.285 | 68.63 | 3.704 |
| 27 | `Cn1c(N2CCOCC2)nc2cc(C(=O)N3CCC(O)(CO)C3)ccc21` (stereo not shown) | -3.781 | 11.06 | 6.173 | -3.125 |
| 28 | `CC(C)COC(C)C(=O)N1CCN(S(C)(=O)=O)CC1` (stereo not shown) | -5.771 | 2.307 | 17.31 | 2.479 |
| 29 | `Cc1ccc(N(C)CC(O)COCc2ccccc2F)c(C)c1` (stereo not shown) | -35.49 | -1.415 | 6.897 | 3.665 |
| 30 | `FC(F)(F)CN1CCC(CCNc2ncccn2)CC1` | -23.16 | 8.499 | 14.29 | 8.824 |
| 31 | `Cc1ccc2c(n1)N(Cc1csc(C)n1)CCN(C1CCOC1)C2` (stereo not shown) | -19.59 | -2.988 | -18.58 | 0 |
| 32 | `CS(=O)(=O)N1CCc2c(nnn2CC2CC2)C1COCC1CC1` (stereo not shown) | -26.33 | 4.437 | 22.81 | 1.075 |
| 33 | `Cc1ccc(N2C[C@H](C(=O)N3CCOCC3)[C@@H]3CCO[C@@H]3C2)nn1` | -19.55 | -2.043 | 20.59 | 9.852 |
| 34 | `Cn1cc(CN2CCCC3(CCN(Cc4cccnc4)C3=O)C2)cn1` (stereo not shown) | -29.25 | 2.969 | 15.04 | 0.5525 |
| 35 | `Cc1nc(C2CCN(S(C)(=O)=O)CC2)nc(N2CCCC2)c1C` | 6.817 | 0.8394 | 14.49 | 12.88 |
| 36 | `Cc1cccc(CN2CCC3(CCC(CC(=O)N(C)C)CC3)CC2)n1` | -15.72 | 6.353 | 20 | 9.278 |
| 37 | `Cc1cc(-c2cnc(NC3CCCC3)nc2-c2ccoc2C)on1` | -84.27 | 6.752 | 11.11 | 3.784 |
| 38 | `COC1CN(C(=O)CC(C)(C)C)CCC(=O)N(C)c2ccccc21` (stereo not shown) | 8.81 | 3.214 | 22.45 | 8.989 |
| 39 | `CC(C)(C(=O)N[C@@H]1CCC[C@@H](O)[C@@H]1O)c1cccc(F)c1` | -8.81 | 2.004 | 4.196 | 2.825 |
| 40 | `Cc1cccc(Nc2cccc(C3CCCN(Cc4ncc[nH]4)C3)n2)n1` (stereo not shown) | -4.179 | 1.079 | 17.24 | 17.49 |
| 41 | `COC(=O)c1ccc(N2CCN(C(=O)c3cnc(C)cn3)C(C)C2)cc1` (stereo not shown) | 1.054 | 2.359 | 12.73 | 4.678 |
| 42 | `CN1CCN(C(=O)c2cccn2C)c2ccccc2C1` | -13.86 | 3.579 | 18.57 | 4.255 |
| 43 | `Cc1n[nH]c(C)c1C1CCCN1C(=O)c1coc(Br)c1` (stereo not shown) | -6.55 | 2.253 | 5.128 | 1.622 |
| 44 | `Cc1cnn(CC2CN(Cc3nc(-c4cccnc4)no3)CCO2)c1` (stereo not shown) | 5.9 | 0.5152 | 13.16 | 2.616 |
| 45 | `Cc1cc(CN2CCC(C3CCN(CCc4ccccc4)CC3)C2)[nH]n1` (stereo not shown) | -21.14 | 8.315 | 35.29 | 41.98 |
| 46 | `Cc1n[nH]c2c1C(c1ccsc1)SCC(=O)N2` (stereo not shown) | -38.29 | -3.091 | 4.854 | 2.174 |
| 47 | `Cc1ccc(C)c2c1NC(=O)C2CC(=O)O` (stereo not shown) | 0.3818 | -0.8396 | 3.175 | 1.538 |
| 48 | `CN(C)C1COC2(CCN(Cc3ccncc3)CC2)C1` (stereo not shown) | -9.671 | 1.178 | 5.455 | 7.438 |
| 49 | `CC(CCNC(=O)N1CCC1)N(C)C(=O)OC(C)(C)C` (stereo not shown) | -23.63 | -0.5682 | 1.724 | -0.5236 |
| 50 | `CN(C)Cc1nn(C)c2c1CCN(C(=O)c1cnccn1)C2` | 13.66 | -10.55 | 10.53 | 0 |
| 51 | `CCn1nccc1CNC(=O)CCC1CCCC1` | -8.211 | 3.165 | -1.77 | 1.754 |
| 52 | `COCCN1CCC(Cc2cnc(-c3ccccc3C(=O)O)cn2)CC1` | -15.78 | 0.1073 | 4.124 | -2.222 |
| 53 | `CC1CCCCN1CCNC(=O)c1ccccc1N1CCOCC1` (stereo not shown) | -12.95 | -0.2754 | -1.613 | -2.041 |
| 54 | `CCOc1ncccc1CNC(=O)Nc1ccc(CC)cc1` | -6.372 | 0.2766 | 7.692 | 1.714 |
| 55 | `CCOc1ccc(CC(CNC(=O)c2sccc2C)C(N)=O)cc1` (stereo not shown) | -12.74 | -2.385 | 4.959 | -0.8403 |
| 56 | `CN1CCN(c2cc(CNC(=O)c3ccsc3)ccn2)CC1` | -29.38 | 0.4536 | 11.01 | 4.118 |
| 57 | `Cn1cc(C(=O)N2CCSc3ccccc32)ccc1=O` | -15.44 | 0.07909 | 1.818 | 1.17 |
| 58 | `Cc1noc(C)c1CN1CCO[C@H]2CN(Cc3cnn(C)c3)C[C@H]21` | -8.243 | 2.084 | 4.425 | 2.4 |
| 59 | `CN(CCS(=O)(=O)c1cc(Cl)ccc1Cl)CC(N)=O` | - | 6.415 | 22.08 | 2.463 |
| 60 | `CC(C)c1ncncc1C(=O)N1CCCN(Cc2cccs2)CC1` | -12.49 | 0.7972 | 24.62 | 0.3831 |
| 61 | `CCn1cc(NC(=O)c2cccc(OCC(F)(F)F)n2)cn1` | -10.45 | 5.817 | 14.71 | 0.5291 |
| 62 | `O=C(c1[nH]nc(C2CC2)c1Cl)N1CCN(C2CC2)C(=O)C1` | -39.95 | 4.109 | 25.71 | 11.69 |
| 63 | `CC(Oc1ccc2c(c1)OCO2)C(=O)Nc1ccon1` (stereo not shown) | -9.696 | 6.229 | 15.93 | 1.754 |
| 64 | `O=C(Cc1ccsc1)N1CCC(c2ccncc2)CC1` | -20.62 | 4.976 | 10.26 | 2.41 |